Values from PubChem BioAssay AID1259254 (NCATS, 2017)

- Purpose: 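Finding genes that stop cells copying their DNA twice in one cycle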 (primary screen)
- Cell system: human HCT116 colorectal cancer cells
- Knock-down reagent: single siRNA against human genes
- Time to read-out: 3 days
- Read-out: 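Nuclei stained with Hoechst and imaged; cell-cycle phase assigned by DNA content; G2 share scaled per plate, non-targeting siRNA 0%, GMNN siRNA 100%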
- Scale: G2 robust z-score and G2 cells, % of GMNN control: higher = more G2 cells, more excess DNA replication
- Hit rule: 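Active siRNAs have a G2 robust z of 5 or more median absolute deviations over the median, which in these data means about 38% or higher of GMNN control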
This is an unselected part of about 59,000 reagents. Over the whole deposit, about 1,550 (2.6%) were called active. 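G2 share is only a proxy for re-replication; each gene was hit by three separate siRNAs, and active genes were retested.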 Further read-outs or replicates are left out here. The record does not give: the amount of reagent.

The first 2 records, to show the layout:
{"gene symbol": "GAB3", "PubChem SID": "SID160757722", "G2 robust z-score": -0.943, "G2 cells, % of GMNN control": -3.67, "Call": "inactive"}
{"gene symbol": "GAB3", "PubChem SID": "SID160757723", "G2 robust z-score": 3.36, "G2 cells, % of GMNN control": 26.6, "Call": "inactive"}

Main list, repeating the preview:
{"gene symbol": "GAB3", "PubChem SID": "SID160757722", "G2 robust z-score": -0.943, "G2 cells, % of GMNN control": -3.67, "Call": "inactive"}
{"gene symbol": "GAB3", "PubChem SID": "SID160757723", "G2 robust z-score": 3.36, "G2 cells, % of GMNN control": 26.6, "Call": "inactive"}
{"gene symbol": "GAB3", "PubChem SID": "SID160757724", "G2 robust z-score": -0.305, "G2 cells, % of GMNN control": 0.825, "Call": "inactive"}
{"gene symbol": "FAM199X", "PubChem SID": "SID160757674", "G2 robust z-score": 0.246, "G2 cells, % of GMNN control": 4.7, "Call": "inactive"}
{"gene symbol": "FAM199X", "PubChem SID": "SID160757675", "G2 robust z-score": 0.496, "G2 cells, % of GMNN control": 6.46, "Call": "inactive"}
{"gene symbol": "FAM199X", "PubChem SID": "SID160757676", "G2 robust z-score": 0.636, "G2 cells, % of GMNN control": 7.44, "Call": "inactive"}
{"gene symbol": "KRT10-AS1", "PubChem SID": "SID160758488", "G2 robust z-score": -0.628, "G2 cells, % of GMNN control": -1.45, "Call": "inactive"}
{"gene symbol": "KRT10-AS1", "PubChem SID": "SID160758489", "G2 robust z-score": 2.6, "G2 cells, % of GMNN control": 21.3, "Call": "inactive"}
{"gene symbol": "KRT10-AS1", "PubChem SID": "SID160758490", "G2 robust z-score": 2.44, "G2 cells, % of GMNN control": 20.2, "Call": "inactive"}
{"gene symbol": "FZR1", "PubChem SID": "SID160740652", "G2 robust z-score": 0.0239, "G2 cells, % of GMNN control": 3.14, "Call": "inactive"}
{"gene symbol": "FZR1", "PubChem SID": "SID160740653", "G2 robust z-score": 0.239, "G2 cells, % of GMNN control": 4.65, "Call": "inactive"}
{"gene symbol": "FZR1", "PubChem SID": "SID160740654", "G2 robust z-score": -0.0896, "G2 cells, % of GMNN control": 2.34, "Call": "inactive"}
